# PubChem BioAssay AID1224831 – NIAID – 2016
# Aim: 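Confirming genome-wide hits on LPS-triggered TNF-alpha induction with independent siRNA sequences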 (follow-up of hits)
# System: human THP-1 B5 monocytic leukaemia cells carrying a TNF promoter luciferase reporter, made macrophage-like with PMA
# Reagents: single siRNA against human genes, 50 nM
# Timing: about 68 h of knock-down, then 4 h LPS
# Challenge: LPS (Salmonella minnesota, TLR-grade) at 10 ng/ml for 4 h; PMA 5 ng/ml present during knock-down
# Measured: 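TNF promoter reporter read as dual luciferase ratio after 4 h LPS, normalised per plate to its median, given as replicate mean robust z-score per siRNA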
# Scale: TNF reporter z-score: higher = stronger LPS-induced TNF reporter signal; z-score, median over gene's siRNAs: higher = stronger TNF reporter signal across the gene's siRNAs
# Hit rule: 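Two-sided call: reduced or raised TNF reporter signal counts as active once mean z reaches about -1 or below, or about 1.5 or above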
# Calls: active = changed TNF reporter (either direction); inactive = little change
# Here is an unselected part of about 3,500 reagents tested. In the full data, 731 (21%) got an active call. 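Active means either lowered or raised reporter signal; the gene-median score did not drive the per-siRNA calls.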 Unmarked entries are inactive. Reagents against one gene are numbered here.
Target gene,siRNA no.,"TNF reporter z-score, replicate mean","z-score, median over gene's siRNAs"
GINS2,1,1.42,0.7
GINS2,2,0.12,0.7
GINS2,3,0.73,0.7
GINS2,4,1.06,0.7
GINS2,5,-0.61,0.7
GINS2,6,0.67,0.7
C1orf226,1,2.44 (active),1.05
C1orf226,2,-0.08,1.05
C1orf226,3,1.85 (active),1.05
C1orf226,4,-0.41,1.05
C1orf226,5,0.26,1.05
C1orf226,6,3.12 (active),1.05
CCDC125,1,1.08,0.77
CCDC125,2,0.46,0.77
CCDC125,3,1.22,0.77
CCDC125,4,0.43,0.77
CCDC125,5,-0.86,0.77
CCDC125,6,1.62 (active),0.77
LIN9,1,1.95 (active),0.34
LIN9,2,0.03,0.34
LIN9,3,-0.02,0.34
LIN9,4,1.31,0.34
LIN9,5,0.65,0.34
LIN9,6,0,0.34
ENTREP3,1,-0.66,-0.34
ENTREP3,2,-2.09 (active),-0.34
ENTREP3,3,-0.02,-0.34
ENTREP3,4,-0.67,-0.34
ENTREP3,5,1.09,-0.34
ENTREP3,6,1.19,-0.34
PLBD1,1,0.2,0.195
PLBD1,2,1.14,0.195
PLBD1,3,0.19,0.195
PLBD1,4,-0.48,0.195
PLBD1,5,0.31,0.195
PLBD1,6,0,0.195

Active calls, of those listed so far:
Target gene,siRNA no.,"TNF reporter z-score, replicate mean","z-score, median over gene's siRNAs"
C1orf226,1,2.44 (active),1.05
C1orf226,3,1.85 (active),1.05
C1orf226,6,3.12 (active),1.05
CCDC125,6,1.62 (active),0.77
LIN9,1,1.95 (active),0.34
ENTREP3,2,-2.09 (active),-0.34
